One substance from PMC7549910 can be followed below.

Protein sequences, listed by entry. Tags and fused reporters are not part of them. Residues count along the entry.
UniProt P0C0J7, residues 28-416: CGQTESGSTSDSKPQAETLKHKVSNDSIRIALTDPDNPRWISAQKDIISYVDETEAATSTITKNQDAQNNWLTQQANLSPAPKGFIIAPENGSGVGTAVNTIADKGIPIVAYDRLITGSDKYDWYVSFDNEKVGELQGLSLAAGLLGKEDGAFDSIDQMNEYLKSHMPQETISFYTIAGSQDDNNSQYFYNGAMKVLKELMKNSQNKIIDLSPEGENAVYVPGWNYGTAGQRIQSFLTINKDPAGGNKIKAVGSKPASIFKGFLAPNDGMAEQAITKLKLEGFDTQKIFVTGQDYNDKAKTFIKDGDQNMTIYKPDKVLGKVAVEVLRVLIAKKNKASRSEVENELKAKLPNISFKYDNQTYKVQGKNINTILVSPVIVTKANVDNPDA
UniProt Q8KQQ9: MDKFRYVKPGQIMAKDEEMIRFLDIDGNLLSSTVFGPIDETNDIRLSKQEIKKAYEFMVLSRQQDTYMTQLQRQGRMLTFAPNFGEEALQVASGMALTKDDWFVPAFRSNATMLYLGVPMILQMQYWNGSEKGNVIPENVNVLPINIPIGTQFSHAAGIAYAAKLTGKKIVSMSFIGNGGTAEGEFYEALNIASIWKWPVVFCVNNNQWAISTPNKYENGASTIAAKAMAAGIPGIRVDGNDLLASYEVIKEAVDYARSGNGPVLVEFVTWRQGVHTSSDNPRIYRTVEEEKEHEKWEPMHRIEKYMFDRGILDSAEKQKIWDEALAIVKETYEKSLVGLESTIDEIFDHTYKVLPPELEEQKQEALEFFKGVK
UniProt P08603, residues 19-1231: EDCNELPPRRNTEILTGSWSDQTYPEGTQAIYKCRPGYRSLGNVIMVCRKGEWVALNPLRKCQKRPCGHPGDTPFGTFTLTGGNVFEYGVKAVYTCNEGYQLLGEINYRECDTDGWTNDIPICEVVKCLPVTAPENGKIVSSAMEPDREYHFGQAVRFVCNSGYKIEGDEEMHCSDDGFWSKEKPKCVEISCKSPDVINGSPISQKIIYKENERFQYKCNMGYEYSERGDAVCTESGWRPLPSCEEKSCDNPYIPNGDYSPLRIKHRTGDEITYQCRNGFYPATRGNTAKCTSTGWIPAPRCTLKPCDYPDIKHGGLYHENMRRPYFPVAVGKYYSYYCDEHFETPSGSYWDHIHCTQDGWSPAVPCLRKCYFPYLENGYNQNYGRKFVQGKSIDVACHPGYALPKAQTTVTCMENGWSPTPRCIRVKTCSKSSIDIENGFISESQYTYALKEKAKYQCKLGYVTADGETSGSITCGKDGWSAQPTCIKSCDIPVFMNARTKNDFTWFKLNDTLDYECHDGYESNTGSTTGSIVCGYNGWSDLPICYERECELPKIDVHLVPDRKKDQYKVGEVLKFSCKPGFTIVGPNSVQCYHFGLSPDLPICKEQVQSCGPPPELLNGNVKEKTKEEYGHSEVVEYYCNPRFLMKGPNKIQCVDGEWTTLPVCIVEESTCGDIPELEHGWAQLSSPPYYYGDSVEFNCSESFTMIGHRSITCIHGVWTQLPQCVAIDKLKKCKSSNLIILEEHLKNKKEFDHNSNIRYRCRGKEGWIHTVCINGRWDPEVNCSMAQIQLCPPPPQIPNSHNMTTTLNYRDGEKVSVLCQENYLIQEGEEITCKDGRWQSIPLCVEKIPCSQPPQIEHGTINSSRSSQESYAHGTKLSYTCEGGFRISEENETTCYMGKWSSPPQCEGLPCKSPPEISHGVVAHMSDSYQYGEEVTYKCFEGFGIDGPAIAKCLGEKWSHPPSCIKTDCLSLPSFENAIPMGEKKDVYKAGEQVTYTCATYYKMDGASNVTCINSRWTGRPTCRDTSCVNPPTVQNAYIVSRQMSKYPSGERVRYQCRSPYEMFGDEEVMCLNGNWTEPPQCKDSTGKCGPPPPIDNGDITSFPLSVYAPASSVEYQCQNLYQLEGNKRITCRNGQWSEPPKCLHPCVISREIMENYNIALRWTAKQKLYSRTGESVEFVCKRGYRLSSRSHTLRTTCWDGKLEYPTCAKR

The target in assay [1] is 46 kDa surface antigen (P46) of M. hyopneumoniae (M. hyopneumoniae (endogenous in strain 168)) (UniProt P0C0J7). Briefly: far-Western, overlay or dot blot; surface (Triton X-114) proteins of M. hyopneumoniae strain 168 resolved by 2-DE and transferred to PVDF; 10 ug/mL factor H in TBST overnight at 4°C; rabbit anti-factor H and HRP anti-rabbit, DAB; reactive spots identified by MALDI-TOF-MS; only the binder purified.

The target in assay [2] is pyruvate dehydrogenase (acetyl-transferring) E1 component subunit alpha (PdhA) of M. hyopneumoniae (M. hyopneumoniae (endogenous in strain 168)) (UniProt Q8KQQ9). The description is as above.

No constants are given. Whether binding was seen depends on the method and setting. Some entries that bind do so weakly or less than the wild type.

With “human factor H (from UniProt P08603 19-1231)”, the binding result in assay [1] and in assay [2] was “binds” in each case.
